Conjugation yield and isolated mass data for three substances are collected here from US10202469B2 (Glytech, Inc., priority 2012, dated 2019).

HELM strings list residues between dots; [ac] is acetyl, [am] amide, other brackets name non-standard units.

This series can be described thus: general procedure: Fmoc solid-phase peptide synthesis; Rink-Amide-PEGA resin; HCTU. The conditions noted are these: for conjugation yield: conjugation step.

With “PEPTIDE1{R.W.G.L.L.L.A.L.L.[SCH2CH2SCH2CO].[asialo-NH]}$$$$V2.0”, the conjugation yield was 10.5%.

“PEPTIDE1{R.W.G.L.L.L.A.L.L.[HMBA].[Cys_open(CH2CO)].[am]}|CHEM1{[asialo-NH]}$PEPTIDE1,CHEM1,11:R3-1:R1$$$V2.0” yielded an isolated mass (whole synthesis, scale 10 μmol) of 5.0 mg.

Regarding “Arg-Trp-Gly-Leu-Leu-Leu-Ala-Leu-Leu-(sugar chain added-linker: 4-thiobenzoic acid-Asn(asialo)-Gly)”, the conjugation yield came out at 17.5%.
